In patent publication US8552035B2, “Phenanthrenone compounds, compositions and methods” (Pfizer Inc., priority 2008, dated 2013):

Experiment: Dissociation index (side-effect biomarker ED / TNFα ED)
Type: in vivo, mouse
Conditions: for Corrected Dissociation Index Insulin/TNF (ED50 dose) / Corrected Dissociation Index Insulin/TNF (ED80 dose) / Corrected Dissociation Index OC/TNF (ED50 dose) / Corrected Dissociation Index OC/TNF (ED80 dose) / Corrected Dissociation Index BFR/TNF (ED50 dose) / Corrected Dissociation Index BFR/TNF (ED80 dose): compound DI divided by prednisolone DI; for Dissociation Index Insulin/TNF (ED50 dose): insulin ED50 / TNFα ED50; for Dissociation Index Insulin/TNF (ED80 dose): insulin ED80 / TNFα ED80; for Dissociation Index OC/TNF (ED50 dose): osteocalcin ED50 / TNFα ED50; for Dissociation Index OC/TNF (ED80 dose): osteocalcin ED80 / TNFα ED80; for Dissociation Index BFR/TNF (ED50 dose): BFR ED50 / TNFα ED50; for Dissociation Index BFR/TNF (ED80 dose): BFR ED80 / TNFα ED80
Description: A dissociation index (DI) was chosen as a measurement to quantify the dissociation of compounds relative to that of prednisolone in terms of biomarkers of anti-inflammatory efficacy and side-effects. Dissociation indices were calculated using clinically relevant biomarkers that could be utilized in early clinical development. Serum osteocalcin and LPS-induced serum TNFα are accepted clinically as predictive for bone formation and anti-inflammatory efficacy, respectively.
The dissociation index was based on the following tenets:
1) Dissociation required a dose-margin between biomarkers of inflammation and side-effects [such as osteocalcin (OC), insulin, or bone formation rate], and was defined by the formula, using osteocalcin suppression (OC) as the side effect example:
[formula] 2) The DI of a compound can be considered relative to that observed with prednisolone, its clinical comparator. The corrected or normalized DI was defined as compound DI divided by prednisolone DI.

## Cc1nc(Br)ccc1NC(=O)c1ccc2c(c1)CC[C@@H]1C[C@@](O)(c3ccccc3)[C@](C)(O)C[C@@]21Cc1ccccc1 [Comparator B, (4bR,6R,7R,8aR)-4b-benzyl-N-(6-bromo-2-methylpyridin-3-yl)-6,7-dihydroxy-6-methyl-7-phenyl-4b,5,6,7,8,8a,9,10-octahydrophenanthrene-2-carboxamide]
  Corrected Dissociation Index Insulin/TNF (ED50 dose): 1.4
  Corrected Dissociation Index Insulin/TNF (ED80 dose): 3.5
  Corrected Dissociation Index OC/TNF (ED50 dose): 2.8
  Corrected Dissociation Index OC/TNF (ED80 dose): 1.1
  Dissociation Index Insulin/TNF (ED50 dose): 12.5
  Dissociation Index Insulin/TNF (ED80 dose): 16.8
  Dissociation Index OC/TNF (ED50 dose): 2.5
  Dissociation Index OC/TNF (ED80 dose): 2.2

## Cc1ncccc1NC(=O)c1ccc2c(c1)CC[C@@H]1C[C@@](O)(c3ccccn3)[C@](C)(O)C[C@@]21Cc1ccccc1 [Comparator C, (4bR,6R,7R,8aR)-4b-benzyl-6,7-dihydroxy-6-methyl-N-(2-methylpyridin-3-yl)-7-(pyridin-2-yl)-4b,5,6,7,8,8a,9,10-octahydrophenanthrene-2-carboxamide]
  Dissociation Index BFR/TNF (ED50 dose): 1.2
  Dissociation Index BFR/TNF (ED80 dose): 0.8
  Corrected Dissociation Index BFR/TNF (ED50 dose): 1.5
  Corrected Dissociation Index BFR/TNF (ED80 dose): 0.6
  Corrected Dissociation Index Insulin/TNF (ED50 dose): >0.7
  Corrected Dissociation Index Insulin/TNF (ED80 dose): >0.4
  Corrected Dissociation Index OC/TNF (ED50 dose): 1.3
  Corrected Dissociation Index OC/TNF (ED80 dose): >2
  Dissociation Index Insulin/TNF (ED50 dose): >6.5
  Dissociation Index Insulin/TNF (ED80 dose): >2
  Dissociation Index OC/TNF (ED50 dose): 1.2
  Dissociation Index OC/TNF (ED80 dose): >2

## C[C@@]1(O)C[C@@]2(Cc3ccccc3)c3ccc(C(=O)NCc4cccnc4)cc3CC[C@@H]2C[C@@]1(O)c1ccccc1 [Comparator D, (4bR,6R,7R,8aR)-4b-benzyl-6,7-dihydroxy-6-methyl-7-phenyl-N-(pyridin-3-ylmethyl)-4b,5,6,7,8,8a,9,10-octahydrophenanthrene-2-carboxamide]
  Dissociation Index BFR/TNF (ED50 dose): 3.1
  Dissociation Index BFR/TNF (ED80 dose): >4.1
  Corrected Dissociation Index BFR/TNF (ED50 dose): 3.9
  Corrected Dissociation Index BFR/TNF (ED80 dose): >3.2
  Corrected Dissociation Index Insulin/TNF (ED50 dose): >0.6
  Corrected Dissociation Index Insulin/TNF (ED80 dose): >0.9
  Corrected Dissociation Index OC/TNF (ED50 dose): >5.9
  Corrected Dissociation Index OC/TNF (ED80 dose): >2.1
  Dissociation Index Insulin/TNF (ED50 dose): >5.3
  Dissociation Index Insulin/TNF (ED80 dose): >4.1
  Dissociation Index OC/TNF (ED50 dose): >5.3
  Dissociation Index OC/TNF (ED80 dose): >4.1

## Cc1ncccc1NC(=O)c1ccc2c(c1)CC[C@@H]1C[C@@](O)(C(F)(F)F)[C@](C)(O)C[C@@]21Cc1ccccc1 [Comparator E, (4bR,6R,7S,8aR)-4b-benzyl-6,7-dihydroxy-6-methyl-N-(2-methylpyridin-3-yl)-7-(trifluoromethyl)-4b,5,6,7,8,8a,9,10-octahydrophenanthrene-2-carboxamide]
  Dissociation Index BFR/TNF (ED50 dose): <0.3
  Dissociation Index BFR/TNF (ED80 dose): <0.3
  Corrected Dissociation Index BFR/TNF (ED50 dose): <0.4
  Corrected Dissociation Index BFR/TNF (ED80 dose): <0.2
  Corrected Dissociation Index OC/TNF (ED50 dose): <0.9
  Corrected Dissociation Index OC/TNF (ED80 dose): <0.5
  Dissociation Index OC/TNF (ED50 dose): <0.8
  Dissociation Index OC/TNF (ED80 dose): <1

## Cc1ncccc1NC(=O)c1ccc2c(c1)C(=O)C[C@@H]1C[C@@](O)(c3ccccc3)[C@](C)(O)C[C@@]21Cc1ccccc1 [Example 1, (4bR,6R,7R,8aS)-4b-benzyl-6,7-dihydroxy-6-methyl-N-(2-methylpyridin-3-yl)-10-oxo-7-phenyl-4b,5,6,7,8,8a,9,10-octahydrophenanthrene-2-carboxamide]
  Dissociation Index BFR/TNF (ED50 dose): 4.1
  Dissociation Index BFR/TNF (ED80 dose): 7.9
  Corrected Dissociation Index BFR/TNF (ED50 dose): 5.1
  Corrected Dissociation Index BFR/TNF (ED80 dose): 6.1
  Corrected Dissociation Index Insulin/TNF (ED50 dose): 4.8
  Corrected Dissociation Index Insulin/TNF (ED80 dose): 11.1
  Corrected Dissociation Index OC/TNF (ED50 dose): 3.1
  Corrected Dissociation Index OC/TNF (ED80 dose): 1.6
  Dissociation Index Insulin/TNF (ED50 dose): 44.1
  Dissociation Index Insulin/TNF (ED80 dose): 5.5
  Dissociation Index OC/TNF (ED50 dose): 2.8
  Dissociation Index OC/TNF (ED80 dose): 3.2

Some results come without the dose or concentration used.
